Reference: patent publication US11031562B2, “Metal complexes” (Merck Patent GmbH, priority 2015, dated 2021)

Experiment: Solution-processed OLEDs from soluble functional materials: characterisation
Settings: solution-processed OLED; for LD50 (h) 1000 cd/m^2: lifetime to 50% of starting luminance 1000 cd/m^2
[1] = device type 1 (single emitter), at 1000 cd/m^2
[2] = device type 2, second emitter together with Ir111, at 1000 cd/m^2
[3] = device type 2, second emitter together with Ir1, at 1000 cd/m^2
[4] = device type 2, second emitter together with Ir1
[5] = device type 2, second emitter together with Ir110, at 1000 cd/m^2
[6] = device type 2, second emitter together with Ir110
[7] = device type 2, second emitter together with Ir(L315), at 1000 cd/m^2

CN1C(=O)c2cc3cc(c2)-c2ccccc2-c2ccc4[n+](c2)[Ir-3]25([c]6ccc(-c7ccc(-c8cccc9c8oc8ccccc89)cc7)cc6-c6ccc(c[n+]62)-c2ccccc2-3)([c]2ccc(-c3ccc(-c6cccc7c6oc6ccccc67)cc3)cc2-4)[c]2cc3c(cc2-c2ccc1c[n+]25)CCC3 [Ir118]
EQE (%) 1000 cd/m^2 [1]: 21.5%
Voltage (V) 1000 cd/m^2 [1]: 5.2 V
LD50 (h) 1000 cd/m^2 (device type 1 (single emitter)): 290000 h

O=C1Oc2ccc3[n+](c2)[Ir-3]2456[c]7cc(c(-c8cccc(-c9cc(-c%10ccccc%10)cc(-c%10ccccc%10)c9)c8)cc7-3)-c3ccccc3-c3cc7cc(c3)-c3ccccc3-c3c[c]2c(cc3-c2cccc(-c3cc(-c8ccccc8)cc(-c8ccccc8)c3)c2)-c2ccc(c[n+]24)OC(=O)c2cc1cc(c2)C(=O)Oc1ccc([n+]5c1)-c1cc(-c2cccc(-c3cc(-c4ccccc4)cc(-c4ccccc4)c3)c2)c(c[c]16)-c1ccccc1-7 [Ir128]
EQE (%) 1000 cd/m^2 [2]: 18.5%
Voltage (V) 1000 cd/m^2 [2]: 5.3 V
LD50 (h) 1000 cd/m^2 (device type 2, second emitter together with Ir111): 300000 h

O=C1Oc2cc3c4[n+](c2)[Ir-3]256([c]7ccc(-c8ccccc8)c(c7-4)CC3)[c]3ccc(-c4ccccc4)c4c3-c3c(cc(c[n+]32)OC(=O)c2cc1cc(c2)C(=O)Oc1cc2c([n+]5c1)-c1[c]6ccc(-c3ccccc3)c1CC2)CC4 [Ir106]
EQE (%) 1000 cd/m^2 [3]: 20.7%
Voltage (V) 1000 cd/m^2 [3]: 5.8 V
LD50 (h) 1000 cd/m^2 [4]: 260000 h

CC(C)(C)c1ccc(-c2nc(-c3ccc(C(C)(C)C)cc3)nc(-c3ccc4[n+](c3)[Ir-3]3567[c]8cc(ccc8-4)OC(=O)c4cc(cc(c4)C(=O)Oc4ccc([c]3c4)-c3ccc(-c4nc(-c8ccc(C(C)(C)C)cc8)nc(-c8ccc(C(C)(C)C)cc8)n4)c[n+]35)C(=O)Oc3ccc([c]6c3)-c3ccc(-c4nc(-c5ccc(C(C)(C)C)cc5)nc(-c5ccc(C(C)(C)C)cc5)n4)c[n+]37)n2)cc1 [Ir122]
EQE (%) 1000 cd/m^2 [5]: 18.2%
Voltage (V) 1000 cd/m^2 [5]: 5.4 V
LD50 (h) 1000 cd/m^2 [6]: 310000 h

O=C1Oc2ccc3[c](c2)[Ir-3]245([c]6cc(ccc6-c6ccc(-c7nc(-c8ccccc8)nc(-c8cccc(-c9ccccc9)c8)n7)c[n+]62)OC(=O)c2cc1cc(c2)C(=O)Oc1ccc([c]4c1)-c1ccc(-c2nc(-c4ccccc4)nc(-c4cccc(-c6ccccc6)c4)n2)c[n+]15)[n+]1cc(-c2nc(-c4ccccc4)nc(-c4cccc(-c5ccccc5)c4)n2)ccc1-3 [Ir123]
EQE (%) 1000 cd/m^2 [5]: 18.4%
Voltage (V) 1000 cd/m^2 [5]: 5.3 V
LD50 (h) 1000 cd/m^2 [6]: 300000 h

CN1C(=O)c2cc3cc(c2)C(=O)N(C)c2ccc4[n+](c2)[Ir-3]25([c]6ccc(-c7ccc(-c8nc(-c9ccccc9)nc(-c9ccccc9)n8)cc7)cc6-c6ccc1c[n+]62)([c]1ccc(-c2ccc(-c6nc(-c7ccccc7)nc(-c7ccccc7)n6)cc2)cc1-c1ccc(c[n+]15)N(C)C3=O)[c]1ccc(-c2ccc(-c3nc(-c5ccccc5)nc(-c5ccccc5)n3)cc2)cc1-4 [Ir111]
EQE (%) 1000 cd/m^2 [1]: 19.5%
Voltage (V) 1000 cd/m^2 [1]: 5.0 V
LD50 (h) 1000 cd/m^2 (device type 1 (single emitter)): 270000 h

Cc1ccc[n+]2c1-c1cc(-c3cccc(CC(C)C)c3)c3c[c]1[Ir-3]2145[c]2cc(c(-c6cccc(CC(C)C)c6)cc2-c2ccc6ccccc6[n+]21)-c1ccccc1-c1cc(cc(c1)-c1ccccc1-c1c[c]4c(cc1-c1cccc(CC(C)C)c1)-c1ccc2ccccc2[n+]15)C(=O)N3C [Ir114]
EQE (%) 1000 cd/m^2 [5]: 19.6%
Voltage (V) 1000 cd/m^2 [5]: 5.3 V
LD50 (h) 1000 cd/m^2 [6]: 330000 h

CC(C)Cc1c2c[c]3c4c1ccc1ccc[n+](c14)[Ir-3]3145[c]3cc(c(CC(C)C)c6ccc7ccc[n+]1c7c36)OC(=O)c1cc(cc(c1)C(=O)Oc1c[c]4c3c(ccc4ccc[n+]5c43)c1CC(C)C)C(=O)O2 [Ir104]
EQE (%) 1000 cd/m^2 [3]: 19.1%
Voltage (V) 1000 cd/m^2 [3]: 5.6 V
LD50 (h) 1000 cd/m^2 [4]: 220000 h

O=C1Oc2cc3cc(c2)OC(=O)c2c[c](c(-c4ccccn4)cc2-c2ccccc2)[Ir]([c]2cc1c(-c1ccccc1)cc2-c1ccccn1)[c]1cc(c(-c2ccccc2)cc1-c1ccccn1)C(=O)O3 [Ir100]
EQE (%) 1000 cd/m^2 [1]: 21.1%
Voltage (V) 1000 cd/m^2 [1]: 5.1 V
LD50 (h) 1000 cd/m^2 (device type 1 (single emitter)): 300000 h

CC(C)(C)c1nc(-c2ccc3[n+](c2)[Ir-3]2456[c]7cc(ccc7-3)OC(=O)c3cc(cc(c3)C(=O)Oc3ccc([c]2c3)-c2ccc(-c3nc(C(C)(C)C)nc(C(C)(C)C)n3)c[n+]24)C(=O)Oc2ccc([c]5c2)-c2ccc(-c3nc(C(C)(C)C)nc(C(C)(C)C)n3)c[n+]26)nc(C(C)(C)C)n1 [Ir124]
EQE (%) 1000 cd/m^2 [5]: 18.5%
Voltage (V) 1000 cd/m^2 [5]: 5.3 V
LD50 (h) 1000 cd/m^2 [6]: 310000 h

c1ccc(-c2cc(-c3ccccc3)cc(-c3cccc(-c4cc[c]5c(c4)-c4cccc[n+]4[Ir-3]546([c]5ccc(-c7cccc(-c8cc(-c9ccccc9)cc(-c9ccccc9)c8)c7)cc5-c5cccc[n+]54)[c]4ccc(-c5cccc(-c7cc(-c8ccccc8)cc(-c8ccccc8)c7)c5)cc4-c4cccc[n+]46)c3)c2)cc1 [Ir1, reference compound]
EQE (%) 1000 cd/m^2 [1]: 19.4%
Voltage (V) 1000 cd/m^2 [1]: 5.2 V
LD50 (h) 1000 cd/m^2 (device type 1 (single emitter)): 190000 h

Cc1cc2[n+]3cc1/C=C\c1cc4cc(c1)/C=C\c1c[n+]5c(cc1C)-c1[c](ccc6c1oc1ccccc16)[Ir-3]351([c]3ccccc3-2)[c]2ccccc2-c2cc(C)c(c[n+]21)/C=C\4 [Ir(L18)]
EQE (%) 1000 cd/m^2 [1]: 20.7%
Voltage (V) 1000 cd/m^2 [1]: 5.3 V
LD50 (h) 1000 cd/m^2 (device type 1 (single emitter)): 270000 h

O=C1Oc2c[c]3c(cc2-c2ccccc2)-c2ccc4c[n+]2[Ir-3]3256[c]3cc7c(-c8ccccc8)cc3-c3ccc(c[n+]32)-c2ccccc2-c2cc(cc(c2)-c2ccccc2-c2ccc([n+]5c2)-c2cc(-c3ccccc3)c(c[c]26)OC(=O)c2cc1cc(c2)C(=O)O7)-c1ccccc1-4 [Ir127]
EQE (%) 1000 cd/m^2 [1]: 20.5%
Voltage (V) 1000 cd/m^2 [1]: 5.4 V
LD50 (h) 1000 cd/m^2 (device type 1 (single emitter)): 380000 h

O=C1Oc2ccc3[n+](c2)[Ir-3]245([c]6ccc(-c7cccc8c7oc7ccccc78)cc6-3)[c]3ccc(-c6cccc7c6oc6ccccc67)cc3-c3ccc(c[n+]32)OC(=O)c2cc1cc(c2)C(=O)Oc1ccc([n+]4c1)-c1cc(-c2cccc3c2oc2ccccc23)cc[c]15 [Ir103]
EQE (%) 1000 cd/m^2 [1]: 21.1%
Voltage (V) 1000 cd/m^2 [1]: 5.1 V
LD50 (h) 1000 cd/m^2 (device type 1 (single emitter)): 340000 h
EQE (%) 1000 cd/m^2 [3]: 19.6%
Voltage (V) 1000 cd/m^2 [3]: 5.6 V
LD50 (h) 1000 cd/m^2 [4]: 220000 h

O=C1c2cc3cc(c2)C(=O)N(c2cccc(-c4cc(-c5ccccc5)cc(-c5ccccc5)c4)c2)c2ccc4[n+](c2)[Ir-3]2567[c]8cc(c(-c9cccc(-c%10cc(-c%11ccccc%11)cc(-c%11ccccc%11)c%10)c9)cc8-c8ccc(c[n+]82)N1c1cccc(-c2cc(-c8ccccc8)cc(-c8ccccc8)c2)c1)-c1ccccc1-c1cc(cc(c1)-c1ccccc1-c1c[c]5c-4cc1-c1cccc(-c2cc(-c4ccccc4)cc(-c4ccccc4)c2)c1)-c1ccccc1-c1c[c]6c(cc1-c1cccc(-c2cc(-c4ccccc4)cc(-c4ccccc4)c2)c1)-c1ccc(c[n+]17)N(c1cccc(-c2cc(-c4ccccc4)cc(-c4ccccc4)c2)c1)C3=O [Ir130]
EQE (%) 1000 cd/m^2 [1]: 20.0%
Voltage (V) 1000 cd/m^2 [1]: 5.3 V
LD50 (h) 1000 cd/m^2 (device type 1 (single emitter)): 350000 h

CN1C(=O)c2c[c]3c(cc2-c2cccc(-c4ccccc4)c2)-c2cccc[n+]2[Ir-3]3245[c]3cc(c(-c6cccc(-c7ccccc7)c6)cc3-c3cccc[n+]32)C(=O)N(C)c2cc1cc(c2)N(C)C(=O)c1c[c]4c(cc1-c1cccc(-c2ccccc2)c1)-c1cccc[n+]15 [Ir108]
EQE (%) 1000 cd/m^2 [1]: 20.9%
Voltage (V) 1000 cd/m^2 [1]: 5.3 V
LD50 (h) 1000 cd/m^2 (device type 1 (single emitter)): 290000 h

O=C1Oc2ccc3[c](c2)[Ir-3]245([c]6cc(ccc6-c6ccc(-c7nc(-c8ccccc8)nc(-c8ccccc8)n7)c[n+]62)OC(=O)c2cc1cc(c2)C(=O)Oc1ccc([c]4c1)-c1ccc(-c2nc(-c4ccccc4)nc(-c4ccccc4)n2)c[n+]15)[n+]1cc(-c2nc(-c4ccccc4)nc(-c4ccccc4)n2)ccc1-3 [Ir121]
EQE (%) 1000 cd/m^2 [5]: 18.4%
Voltage (V) 1000 cd/m^2 [5]: 5.3 V
LD50 (h) 1000 cd/m^2 [6]: 320000 h

CC(C)(C)CN1C(=O)c2cc3cc(c2)C(=O)N(CC(C)(C)C)c2cc4ccc5c(-c6ccnc7c6oc6ccccc67)cc[c]6c5c4[n+](c2)[Ir-3]624([c]5ccc(-c6ccnc7c6oc6ccccc67)c6ccc7cc1c[n+]2c7c56)[c]1ccc(-c2ccnc5c2oc2ccccc25)c2ccc5cc(c[n+]4c5c12)N(CC(C)(C)C)C3=O [Ir112]
EQE (%) 1000 cd/m^2 [7]: 20.0%
Voltage (V) 1000 cd/m^2 [7]: 5.3 V
LD50 (h) 1000 cd/m^2 (device type 2, second emitter together with Ir(L315)): 330000 h
